Assay results published in paper PMC5768801, “The PII signaling protein from red algae represents an evolutionary link between cyanobacterial and Chloroplastida PII proteins” (Scientific Reports, 2018).

Tested on: CrPII
Assay: ITC binding of small effector molecules to green algal CrPII
Set-up: species or system Chlamydomonas reinhardtii
Procedure: To gain additional insights into the ligand binding properties of PpPII in comparison to cyanobacterial and chloroplastid PII proteins, isothermal titration calorimetry (ITC) experiments were performed using highly purified Strep-tagged or His-tagged recombinant PpPII, SyPII, CrPII, and PhyscoPII proteins (Supplementary Fig. S1) with different protein/ligand/ concentrations to determine the best fitting conditions of the binding model. The titration experiments were repeated with different protein preparations to confirm the reproducibility of the results. The raw isothermal data were fitted into one-binding site as well as three-sequential binding sites to define the best fitting model. Fitting using a one binding site model states an average Kd value for all available binding sites and the mean of the stoichiometry of bound ligands.
The ITC experiments were done using a VP-ITC microcalorimeter (MicroCal, LCC). All details for determination of binding constants for small effector molecules using ITC are fully described in the supplementary information. Heat isotherms of the dilution of the ligand in the cell buffer were collected in a blank run for each experiment in the absence of protein. The binding isotherms were calculated from received data and fitted to one-site and three-sequential binding sites models using the MicroCal ORIGIN software (Northampton) as described. All titrations were performed in duplicates with different purification batches of recombinant PII proteins. The association binding constant (Ka) was generated from the software by de-convolution and curve fitting. For calculation of dissociation constant (Kd), the Ka value was inversed.
Supplementary Information […]
Determination of Binding Constants for Small Effector Molecules using Isothermal […]
The binding of the small effector molecules to the recombinant PII proteins was tested using isothermal titration calarmity (ITC); VP-ITC microcalorimeter (MicroCal). All titrations were performed on 20°C using […] injection syringe with injection 6 µl or 10 µl of the tested ligands for 45 or 29 times, respectively into the cell (1.4 ml) with continuous stirring at 155 rpm. All tested ligands were high grade, prepared freshly in the same buffer of the protein and purchased from Sigma-Aldrich. Heat isotherms for the dilution of the ligand in the cell buffer were collected in a blank run in the absence of protein. The received calorimetric data were analyzed using MicroCal Origin software and fitted into one-site and three-sequential binding sites models, as indicated by the manufacture for calculation of binding isotherms9. For data reproducibility, the titrations were performed in duplicates with different purification batches of recombinant PII proteins. The association binding constant (Ka) was generated from the software by de-convolution and curve fitting. For calculation of dissociation constant (Kd), the Ka value was inversed. […]

SMILES | N, number of calculated binding sites (one-site binding model) (in presence 2-OG (2 mM)) | N, number of calculated binding sites (one-site binding model) (titrant alone) | N, number of calculated binding sites (one-site binding model) (in presence ADP (2 mM)) | N, number of calculated binding sites (one-site binding model) (in presence ATP (2 mM))
Nc1ncnc2c1ncn2[C@@H]1O[C@H](COP(=O)(O)OP(=O)(O)OP(=O)(O)O)[C@@H](O)[C@H]1O [ATP] | 2.6 | No binding |  | 
O=C(O)CCC(=O)C(=O)O [2-OG, 2-oxoglutarate] |  |  | No binding | 2.6
Nc1ncnc2c1ncn2[C@@H]1O[C@H](COP(=O)(O)OP(=O)(O)O)[C@@H](O)[C@H]1O [ADP] | No binding | No binding |  | 
